# In publication PMC7819943, “Rice protein-binding microarrays: a tool to detect cis-acting elements near promoter regions in rice”:
# Sequences of proteins named here, by UniProt entry; tags and fusion partners are left off.
# UniProt Q0JBA9, entry or part of it: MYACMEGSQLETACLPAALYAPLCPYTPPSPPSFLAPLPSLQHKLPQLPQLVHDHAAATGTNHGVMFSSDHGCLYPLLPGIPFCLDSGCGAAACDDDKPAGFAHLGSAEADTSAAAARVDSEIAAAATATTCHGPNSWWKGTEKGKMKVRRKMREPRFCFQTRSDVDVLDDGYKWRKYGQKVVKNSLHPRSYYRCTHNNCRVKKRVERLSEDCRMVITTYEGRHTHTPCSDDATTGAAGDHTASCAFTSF
# The list shows a part of the results.
# Target: OsWRKY34 (Oryza sativa, UniProt Q0JBA9 1-250)
# Assay: protein-binding microarray (RPBM); PBS, 2% BSA, 51.3 ng/ul salmon testes DNA, 50 uM zinc acetate, 200 nM TF, 25 C, 1 h; high values mean tight binding
# Conditions: protein: recombinant; tags: N-terminal polyhistidine and DsRed monomer fusion (pET32a); label: CyDye5-dUTP incorporated in the synthesized complementary strand; 3' TTTTT single-stranded linker to array surface; dsDNA, one strand shown
# Outline: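 A custom Agilent array was converted to double-stranded form by primer extension with Cy5-dUTP and blocked with 2% BSA. Protein at 200 nM in PBS with 2% BSA, salmon testes DNA and 50 µM zinc acetate was applied for 1 h at 25 °C, followed by washing. The proteins were polyhistidine–DsRed N-terminal fusions of transcription factors, expressed in E. coli BL21-CodonPlus and Ni–NTA-purified. The binding signal is per-feature fluorescence intensity (arbitrary units) from an Axon 4000B scanner.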
row,Sequence,binding signal
1,GCCCGGCCCATATTGGCCCACTAGAACCGTGGCCACTTTCCGGAGTCACCTAGTGCAG,8330 fluorescence intensity (a.u.)
2,AAGTCCTTAGCATGGCAACAACACCGTCCCACCACTCTCACGGAGTCACCTAGTGCAG,8220 fluorescence intensity (a.u.)
3,TGATGAGCCTGCTGTTTCAGCTGTCTGGTACTTGGTTGACCGGAGTCACCTAGTGCAG,8540 fluorescence intensity (a.u.)
4,CTTACTGAAATTTTGTCACCCAGTTTTGTTGAAACGATCCCGGAGTCACCTAGTGCAG,8120 fluorescence intensity (a.u.)
5,GCGGAGGTGGTGGTGGCCTTGGAGGAGGTGGCGGCGGAGGCGGAGTCACCTAGTGCAG,14300 fluorescence intensity (a.u.)
6,CGCCATCCGCCGCCCGCTCCTCCGCTCCGTCGCCTTCTCCCGGAGTCACCTAGTGCAG,8620 fluorescence intensity (a.u.)
7,TCAAAAGTCTACGTTTATATGCATTGTGTATTTGTGTGTTCGGAGTCACCTAGTGCAG,8150 fluorescence intensity (a.u.)
8,CAAAATTCGCGGCCTCCTATATAACGCCGTCTCGATCTCTCGGAGTCACCTAGTGCAG,8140 fluorescence intensity (a.u.)
9,AACACGATTAATACTTTATGCGTGACTTGTCTTTTTTAATCGGAGTCACCTAGTGCAG,8740 fluorescence intensity (a.u.)
10,CTTTATTTGATGGCCCACATTTGTTTTTCTTGTTTTGCTTCGGAGTCACCTAGTGCAG,8740 fluorescence intensity (a.u.)
11,GTCAAGCTAGCCCTTCTTGCTTGCTCCGTTCAACGCCTCTCGGAGTCACCTAGTGCAG,8930 fluorescence intensity (a.u.)
12,GTGCGTGTAAGTTTTGCCCTTTTTGTTTTTTTCTTCTGAGCGGAGTCACCTAGTGCAG,8030 fluorescence intensity (a.u.)
13,TCCGTGTCAAACCATTAACTTGTTTTTCCTTCCGTGTCAACGGAGTCACCTAGTGCAG,10100 fluorescence intensity (a.u.)
14,ACTGCCTTAAAATCCAGCGGTGGGACATTTTCGGGGTATACGGAGTCACCTAGTGCAG,8160 fluorescence intensity (a.u.)
15,GGTTGGGAGTTGGGGAGGAGGGGAGTTAGGCAAAGAGGAGCGGAGTCACCTAGTGCAG,15100 fluorescence intensity (a.u.)
16,CCGACAAATACTACCTCATGACCTTTTCTGCACTGTTTGTCGGAGTCACCTAGTGCAG,10400 fluorescence intensity (a.u.)
17,GAGTAAGATCCTGGATCTCTCCTTCTCGGCTTCTCTGTTTCGGAGTCACCTAGTGCAG,9280 fluorescence intensity (a.u.)
18,CCTCAACATTGCCGAAAATTTTTGTCCCTGTACGGTTCTACGGAGTCACCTAGTGCAG,10700 fluorescence intensity (a.u.)
19,CTCCGCCGCCTCGCCCCTGCAGACCAGCAAATCACTCCAACGGAGTCACCTAGTGCAG,10600 fluorescence intensity (a.u.)
20,ATCGACTATAATTTTACATATTTATACTATATCTTTTAATCGGAGTCACCTAGTGCAG,8910 fluorescence intensity (a.u.)
21,ATTTGTTTTTACTTACTTGGCTTACTTCTTTCCAGTTAGACGGAGTCACCTAGTGCAG,8240 fluorescence intensity (a.u.)

row,Sequence,binding signal
1,GGTTTTGATGCCCGAATCCGGCCTTTTCTCTGTCTATTTCCGGAGTCACCTAGTGCAG,11200 fluorescence intensity (a.u.)
2,CCATCTCCGAGCTTCTTGTTGTTGTTGTTGTTGGTTTGGTCGGAGTCACCTAGTGCAG,12000 fluorescence intensity (a.u.)
3,GTTTGACCATTCGTCTTATTCAAAAAATTTACGTAATAATCGGAGTCACCTAGTGCAG,8650 fluorescence intensity (a.u.)
4,GGGCCTGTTCACTTTGATGTCATTTTCAACCTTACTAAATCGGAGTCACCTAGTGCAG,10500 fluorescence intensity (a.u.)
5,TGGGCCTTGCATGAGTTTGATTGACCCTATGGTCTGCGCACGGAGTCACCTAGTGCAG,8540 fluorescence intensity (a.u.)
6,TACATCTGATTTTTTTTTGTTTCTCCACACCCTGATTGTTCGGAGTCACCTAGTGCAG,12000 fluorescence intensity (a.u.)
7,TCCCAGCCTCCATCTCCATCCCCACGGGACCATTCAATCTCGGAGTCACCTAGTGCAG,8790 fluorescence intensity (a.u.)
8,GTAACCGTATTTCTGTTAAAATCCCGTGTTGTTTTTTATTCGGAGTCACCTAGTGCAG,13300 fluorescence intensity (a.u.)
9,GACGAGGTCAAACGTTTATTAAAAAGTCAACGGCGTCGTACGGAGTCACCTAGTGCAG,11400 fluorescence intensity (a.u.)
10,GACGCCGCCGCCGCCGCCGCCAGCCGCCACGTTATCCATGCGGAGTCACCTAGTGCAG,9530 fluorescence intensity (a.u.)
11,GTCGCGATCCTCTGCTTCTTCGTCGTCGACTGCACCTCCTCGGAGTCACCTAGTGCAG,9880 fluorescence intensity (a.u.)
12,ACGAATATATACTTCCACCATCTCAATTTTCGTAGATAATCGGAGTCACCTAGTGCAG,8290 fluorescence intensity (a.u.)
13,GCTGATGGTTTGTGTCGGGAGGGGAGGATTGAGGATGCTTCGGAGTCACCTAGTGCAG,13700 fluorescence intensity (a.u.)
14,CAAACGTACTCCTACTCTCCAAGCAGCCTATATAAACCACCGGAGTCACCTAGTGCAG,8590 fluorescence intensity (a.u.)
15,AGAGATTTGTTTGGTGAATGGTGATTTCTTCCTGTGATGACGGAGTCACCTAGTGCAG,13300 fluorescence intensity (a.u.)
16,GCTTTTACTCCAACTTGGGGATGGGGAGACATAGCAGATTCGGAGTCACCTAGTGCAG,9350 fluorescence intensity (a.u.)
17,CCACCTTGTATATTCTAGAGTTCCCAATTTTGCTTCATTTCGGAGTCACCTAGTGCAG,8670 fluorescence intensity (a.u.)
18,CTCACTCCTGGCGCCGGTGACCTCTCTGCCACTCCACCGGCGGAGTCACCTAGTGCAG,8550 fluorescence intensity (a.u.)
19,ATATGTTAGACATATTTGCACTCTTTACTTGCTTTCATGCCGGAGTCACCTAGTGCAG,9530 fluorescence intensity (a.u.)
20,GCTTACTATACTACTAATATATGGTCCCACCTGTCATACACGGAGTCACCTAGTGCAG,8150 fluorescence intensity (a.u.)
21,GGGGTGCGGCGATTTCTACTCCCTTGGAGCTTGCATATGACGGAGTCACCTAGTGCAG,12200 fluorescence intensity (a.u.)

# 2 entries from above, bar-delimited:
row | Sequence | binding signal
15 | AGAGATTTGTTTGGTGAATGGTGATTTCTTCCTGTGATGACGGAGTCACCTAGTGCAG | 13300 fluorescence intensity (a.u.)
19 | ATATGTTAGACATATTTGCACTCTTTACTTGCTTTCATGCCGGAGTCACCTAGTGCAG | 9530 fluorescence intensity (a.u.)
